{
  "source": "patent US5707855A",
  "about": "(priority 1996, dated 1998)",
  "key": {"P. aeruginosa H103 LPS": {"system": "P. aeruginosa H103 LPS", "experiment": "Dansyl polymyxin (DPx) displacement from purified LPS", "assay_type": "binding", "details": "on a μM basis", "method": "In this assay, DPx was incubated with LPS to saturate the binding sites and then, while polycationic compounds are titrated into the reaction, displacement of the DPx was monitored by the decrease in fluorescence (FIG. 9).\nThe method of Moore, et al., (Antimicrobial Agents and Chemo., 29:496, 1987), was used to test how much DPx was needed to saturate the binding sties on LPS. Briefly, 5 μl samples of 100 μM DPx were titrated sequentially into 1 ml of 3 μg/ml of LPS until a maximum fluorescence was reached. The fluorescence was measured in a Perkin-Elmer 650-10S fluorescence spectrophotometer with an excitation wavelength of 340 nm and an emission wavelength of 485 nm using slit widths of 5 nm. […] For the binding inhibition assays (Moore, et al., Antimicrobial Agents and Chemo., 29:496, 1987), 2.5 μM DPx was added to 3 μg/ml of H103 LPS in 5 mM HEPES pH 7.2. The test compounds were added 5 μl at a time and the decrease in fluorescence due to displacement of the DPx from the LPS was recorded."}, "P. aeruginosa": {"system": "P. aeruginosa", "experiment": "Killing assay (viable count)", "assay_type": "cell-based", "details": "2.5 μg/ml (0.9 μM), 10^6 cells/ml, 20 minutes"}, "P. AERUGINOSA H309 [1]": {"system": "P. AERUGINOSA H309", "assay_type": "cell-based", "details": "10 μM NPN; fluorescence increase", "from_the_text": "The second assay determined membrane permeability by the ability of 1-N-phenylnaphthylamine (NPN), a small fluorescent probe, to insert itself into the membrane. Normally, very little NPN can penetrate the outer membrane, but in the presence of a membrane permeabilizer it can insert into the hydrophobic membrane resulting in an increase in fluorescence (FIGS. 7 and 8). This N-phenylnaphthylamine uptake assay was previously described by Loh, et al., Antimicrobial Agents and Chemo., 26:546, 1984. Cells were prepared exactly the same as for the lysozyme lysis assay. 1-N-phenylnaphthylamine (NPN) was dissolved in acetone at a concentration of 500 μM. NPN fluorescence was measured in a Perkin-Elmer 650-10S fluorescent spectrophotometer using excitation and emission wavelengths set to 350 nm and 420 nm respectively, with slit widths of 5 nm. The assay was standardized by adding 20 μl of NPN (final concentration of 10 μM) and 10 μl of 0.64 mg/ml of polymyxin B (final concentration of 6.4 μg/ml) into 1 ml of cells, and adjusting the resulting fluorescence to read 90% deflection (90 arbitrary units). […] Permeabilizing activity was designated as the total fluorescence minus the fluorescence due to NPN alone. Following the fluorescence measurement, the OD600 of the cells was taken to ensure no significant cell lysis had occurred."}, "E. cloacae 218R1": {"system": "E. cloacae 218R1", "experiment": "Lysozyme lysis assay (outer membrane permeabilization)", "assay_type": "cell-based", "details": "50 μg/ml lysozyme; decrease in OD600", "method": "(§1) Membrane permeabilization by polycationic compounds was measured in two different assays. The first assay measured membrane disruption by the ability of lysozyme to reach the periplasm and cause cell lysis. […] The uptake of lysozyme into whole cells due to membrane permeabilization by various compounds was previously described in Hancock, et al., Antimicrobial Agents and Chemo., 19:777, 1981. Overnight cultures of P. aeruginosa H309 or E. cloacae 218R1 grown in LB-S were diluted 1 in 50 in fresh medium and grown to an OD600 =0.5-0.6. The cells were harvested in a Silencer H-103N clinical centrifuge at 1800 g for 10 min, washed once with one volume of assay buffer (5 mM HEPES pH 7.2, 5 mM KCN), and resuspended in the same buffer to an OD600 of 0.5. Assays consisted of 600 μl of cells with 50 μg/ml of chicken egg white lysozyme and varying concentrations of cationic compounds. Cell lysis was measured as a decrease in the OD600 in a Perkin-Elmer dual beam spectrophotometer. Parallel experiments performed without lysozyme enabled the measurement of the lytic activity of the compounds themselves. To test whether or not permeability to lysozyme could be inhibited by divalent cations, various concentrations of MgCl2 were added to the assay after the addition of lysozyme and before the addition of the test compound."}, "P. AERUGINOSA H309 [2]": {"system": "P. AERUGINOSA H309", "experiment": "Lysozyme lysis assay (outer membrane permeabilization)", "assay_type": "cell-based", "method": "as §1"}, "E. coli strain DC2": {"system": "E. coli strain DC2", "experiment": "Acid-urea gel overlay antibacterial activity", "assay_type": "cell-based", "details": "15% acid-urea gel overlaid with agar containing ≈10^5 cells, overnight at 37° C.", "method": "A sample of the partially purified CEME protein was electrophoresed on a 15% acid-urea gel, which separates proteins based on charge and mass (Panyim and Chalkey, Arch. Biochem Biophys., 130:337, 1969). The pH of the buffer is acidic (≈pH 5.0) and the polarity is reversed such that proteins migrate to the cathode. Therefore, the small cationic peptides run relatively quickly through the gel and thus can be easily identified. Antibacterial activity was tested as previously described (Hultmark, Eur. J. Biochem., 106:7, 1980). The gel was incubated in Mueller Hinton broth+0.2M NaPO4 pH 7.4 for 1 hr. It was overlaid with mls of the same media containing 0.6% agar and≈10^5 E. coli strain DC2, and then again with ml of the same media containing only 0.6% agar. […] Melittin is used as a positive control due to its antibacterial activity and similarity in size and PI values."}, "E. coli": {"system": "E. coli", "assay_type": "cell-based", "details": "strain UB1005, Parent of DC2", "method": "(§2) The minimum inhibitory concentrations of (MIC) of CEME, CEMA and melittin were determined for a number of different bacteria (Table 2). Briefly, cells were grown overnight at 37° C. in LB-S (Luria broth without any salt supplement) and diluted one in 10,000 in the same medium to give concentrations of about 10^4 to 10^5 CFU/ml. The broth dilutions were set up in a 96 well microtiter plate by putting 200 μl of LB-S containing the initial concentration of antibiotic or compound in column 1 and 100 μl of the same medium in columns 2-12. The compounds were diluted by taking 100 μl of broth from column 1 and mixing it with column 2, resulting in a one in two dilution. This was continued to column 10. Finally, 10 μl of bacteria were pipetted into columns 1-11, and the plates incubated overnight at 37° C. The next day the plates were scored for growth in the wells, and the MIC determined."}, "E. cloacae": {"system": "E. cloacae", "assay_type": "cell-based", "method": "as §2"}, "S. typhimurium": {"system": "S. typhimurium", "assay_type": "cell-based", "method": "as §2"}},
  "note": "Where two headings read alike, the source gives them in different places. At least one peptide structure holds a part that was inferred or is arguable (an end, a ring closure or a residue).",
  "data": [
    {"smiles": "CC[C@H](C)[C@H](NC(=O)CNC(=O)[C@@H](NC(=O)[C@H](CCCCN)NC(=O)[C@H](CCCCN)NC(=O)[C@H](Cc1ccccc1)NC(=O)[C@H](CC(C)C)NC(=O)[C@H](CCCCN)NC(=O)[C@H](Cc1c[nH]c2ccccc12)NC(=O)[C@@H](N)CCCCN)[C@@H](C)CC)C(=O)NCC(=O)N[C@@H](C)C(=O)N[C@H](C(=O)N[C@@H](CC(C)C)C(=O)N[C@@H](CCCCN)C(=O)N[C@H](C(=O)N[C@@H](CC(C)C)C(=O)N[C@H](C(=O)N[C@H](C(=O)NCC(=O)N[C@@H](CC(C)C)C(=O)N1CCC[C@H]1C(=O)N[C@@H](C)C(=O)N[C@@H](CC(C)C)C(=O)N[C@H](C(=O)N[C@@H](CO)C(=O)O)[C@@H](C)CC)[C@@H](C)O)[C@@H](C)O)C(C)C)C(C)C", "note": "[CEME]", "values": [
      {"measurement": "Affinity for LPS compared with polymyxin B", "setting": "P. aeruginosa H103 LPS", "value": "slightly lower affinities"},
      {"measurement": "Reduction of viable count", "setting": "P. aeruginosa", "value": "three log orders"},
      {"measurement": "Activity in opening up the membrane to NPN", "setting": "P. AERUGINOSA H309 [1]", "value": "less active"},
      {"measurement": "Permeabilization of the outer membrane to lysozyme, compared with polymyxin B", "setting": "E. cloacae 218R1", "value": "only at lower concentrations"},
      {"measurement": "Permeabilization of the outer membrane to lysozyme, compared with polymyxin B", "setting": "P. AERUGINOSA H309 [2]; 50 μg/ml lysozyme, decrease in OD600", "value": "only at lower concentrations"},
      {"measurement": "Cell lysis in the absence of lysozyme", "setting": "P. AERUGINOSA H309 [2]; increased concentrations of peptide", "value": "cell lysis in the absence of lysozyme occurred"},
      {"measurement": "Antibacterial activity in overlaid gel", "setting": "E. coli strain DC2", "value": "zones of clearing"},
      {"measurement": "MIC", "setting": "E. coli", "value": 2.4, "unit": "mg/L"},
      {"measurement": "MIC", "setting": "E. cloacae; strain 218R1, β-lactam resistant", "value": 2.4, "unit": "mg/L"},
      {"measurement": "MIC", "setting": "E. cloacae; strain 218S, Parent of 218R1", "value": 2.4, "unit": "mg/L"},
      {"measurement": "Sensitivity of defensin sensitive strain C590 relative to parent (MIC change)", "setting": "S. typhimurium; C590 versus C587", "value": "four-fold more sensitive"},
      {"measurement": "MIC", "setting": "S. typhimurium; strain C590, Defensin sensitive", "value": 0.6, "unit": "mg/L"}
    ]}
  ]
}
